Test results taken from article PMC5951852.
Results are given in words; binding and its absence hold for the method and conditions named. In cells and extracts the contact can be indirect. A yes stands for co-enrichment or nearness to the bait. Other partners may have been found.

Amino acid sequences for entries named in this document (tags omitted).
UniProt P17098: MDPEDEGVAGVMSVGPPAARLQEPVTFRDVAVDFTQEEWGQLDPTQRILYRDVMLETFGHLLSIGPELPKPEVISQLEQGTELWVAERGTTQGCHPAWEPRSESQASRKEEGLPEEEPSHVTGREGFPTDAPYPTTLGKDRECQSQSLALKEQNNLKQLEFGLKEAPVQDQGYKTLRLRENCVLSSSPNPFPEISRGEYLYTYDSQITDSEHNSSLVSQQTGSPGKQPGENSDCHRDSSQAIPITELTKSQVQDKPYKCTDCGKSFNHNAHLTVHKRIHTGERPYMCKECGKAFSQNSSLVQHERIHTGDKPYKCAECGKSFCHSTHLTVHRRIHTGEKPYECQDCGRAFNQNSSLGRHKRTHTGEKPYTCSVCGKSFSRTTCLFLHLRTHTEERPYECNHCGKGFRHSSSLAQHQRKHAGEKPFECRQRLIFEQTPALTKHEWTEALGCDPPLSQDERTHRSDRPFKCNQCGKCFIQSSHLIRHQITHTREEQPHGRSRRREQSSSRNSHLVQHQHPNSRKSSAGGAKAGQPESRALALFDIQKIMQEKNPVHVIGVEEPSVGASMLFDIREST
UniProt O14628: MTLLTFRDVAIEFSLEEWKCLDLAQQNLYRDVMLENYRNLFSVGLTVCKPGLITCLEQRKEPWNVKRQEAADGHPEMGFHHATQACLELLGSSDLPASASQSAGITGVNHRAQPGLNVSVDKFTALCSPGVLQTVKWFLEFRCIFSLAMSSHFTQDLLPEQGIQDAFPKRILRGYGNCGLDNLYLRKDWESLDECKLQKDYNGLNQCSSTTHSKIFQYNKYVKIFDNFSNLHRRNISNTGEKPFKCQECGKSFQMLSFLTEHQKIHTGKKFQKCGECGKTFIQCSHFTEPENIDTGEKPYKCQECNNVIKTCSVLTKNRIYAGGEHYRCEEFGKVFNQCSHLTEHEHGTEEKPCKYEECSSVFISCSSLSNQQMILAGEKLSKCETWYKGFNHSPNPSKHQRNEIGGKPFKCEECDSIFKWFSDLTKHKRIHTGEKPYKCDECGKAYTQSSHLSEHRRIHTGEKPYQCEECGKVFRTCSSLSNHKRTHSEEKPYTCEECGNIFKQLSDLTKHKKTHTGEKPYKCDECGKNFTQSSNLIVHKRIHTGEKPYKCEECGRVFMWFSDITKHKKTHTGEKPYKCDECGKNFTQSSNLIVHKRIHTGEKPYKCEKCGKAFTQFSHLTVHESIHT
UniProt Q8NDW4: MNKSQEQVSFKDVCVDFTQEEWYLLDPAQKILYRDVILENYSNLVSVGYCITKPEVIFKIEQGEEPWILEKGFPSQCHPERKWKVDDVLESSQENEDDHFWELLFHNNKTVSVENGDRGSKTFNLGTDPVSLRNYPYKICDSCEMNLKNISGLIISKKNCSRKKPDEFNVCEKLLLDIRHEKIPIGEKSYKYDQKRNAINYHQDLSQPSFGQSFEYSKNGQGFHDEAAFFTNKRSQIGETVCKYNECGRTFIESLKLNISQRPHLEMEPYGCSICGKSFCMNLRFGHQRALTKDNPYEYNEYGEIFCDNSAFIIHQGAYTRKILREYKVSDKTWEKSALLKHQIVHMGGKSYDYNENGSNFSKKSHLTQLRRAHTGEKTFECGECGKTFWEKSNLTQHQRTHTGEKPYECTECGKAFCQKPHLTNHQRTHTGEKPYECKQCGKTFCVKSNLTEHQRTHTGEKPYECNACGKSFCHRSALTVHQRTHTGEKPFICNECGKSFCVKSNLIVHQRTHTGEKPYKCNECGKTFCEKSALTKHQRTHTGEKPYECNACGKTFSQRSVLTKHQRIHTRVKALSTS

These substances were tested against p53 (human (endogenous in HCT116 and NCM460)) (UniProt P04637) (assay: affinity purification with mass spectrometry; p53 immunoprecipitated from HCT116 p53+/+ cells at 0, 24 and 48 h after glucose starvation, then mass spectrometry).

Substance	binding
ZNF8 (from UniProt P17098 1-575)	binds
ZNF195 (from UniProt O14628 1-629)	binds
ZNF248 (from UniProt Q8NDW4 1-579)	binds
